The assay concerns the target T1, KDELR-BirA* (human) (UniProt P24390).
T1 sequence: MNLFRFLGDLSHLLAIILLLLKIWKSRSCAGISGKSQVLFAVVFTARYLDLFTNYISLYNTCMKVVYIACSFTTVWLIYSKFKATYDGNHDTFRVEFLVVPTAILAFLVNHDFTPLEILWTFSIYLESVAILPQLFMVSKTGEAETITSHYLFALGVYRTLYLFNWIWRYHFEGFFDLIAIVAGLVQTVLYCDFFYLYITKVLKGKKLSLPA
The assay can be described thus: proximity labelling; BioID: HeLa transfected with KDELR-BirA* or KDELR-myc (control) for 24 h, 50 μM biotin for 6 h, streptavidin beads, mass spectrometry; data revisited from ref. 20.

By UniProt entry, the sequences of proteins in these tests, tags left out.
UniProt Q14677: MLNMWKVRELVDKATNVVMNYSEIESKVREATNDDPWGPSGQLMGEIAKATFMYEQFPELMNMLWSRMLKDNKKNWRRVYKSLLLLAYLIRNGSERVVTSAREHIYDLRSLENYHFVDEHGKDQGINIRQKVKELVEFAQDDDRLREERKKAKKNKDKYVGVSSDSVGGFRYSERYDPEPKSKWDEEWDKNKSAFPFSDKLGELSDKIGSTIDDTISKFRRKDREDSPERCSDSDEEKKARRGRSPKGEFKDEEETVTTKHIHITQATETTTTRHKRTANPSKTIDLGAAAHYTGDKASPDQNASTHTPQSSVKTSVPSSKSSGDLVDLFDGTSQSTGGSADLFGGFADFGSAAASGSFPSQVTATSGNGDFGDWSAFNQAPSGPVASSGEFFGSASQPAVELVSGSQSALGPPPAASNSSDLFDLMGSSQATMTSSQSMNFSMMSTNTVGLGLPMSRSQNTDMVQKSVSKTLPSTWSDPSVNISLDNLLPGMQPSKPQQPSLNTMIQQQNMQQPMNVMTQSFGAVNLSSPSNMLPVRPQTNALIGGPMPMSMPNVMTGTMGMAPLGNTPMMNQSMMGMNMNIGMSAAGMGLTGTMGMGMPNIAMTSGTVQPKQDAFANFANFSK

Results are given in words; binding and its absence hold for the method and conditions named. Binding seen in cells or lysates may run through a third protein. Here binding means that the protein was enriched with, or labelled near, the bait; the list need not be complete.

Consider “clathrin interactor 1 (from UniProt Q14677 1-625)”, for which the binding result is given as “binds”.

B1: phosphatidylinositol binding clathrin assembly protein (protein, UniProt Q13492 1-652)
chain: MSGQSLTDRITAAQHSVTGSAVSKTVCKATTHEIMGPKKKHLDYLIQCTNEMNVNIPQLADSLFERTTNSSWVVVFKSLITTHHLMVYGNERFIQYLASRNTLFNLSNFLDKSGLQGYDMSTFIRRYSRYLNEKAVSYRQVAFDFTKVKRGADGVMRTMNTEKLLKTVPIIQNQMDALLDFNVNSNELTNGVINAAFMLLFKDAIRLFAAYNEGIINLLEKYFDMKKNQCKEGLDIYKKFLTRMTRISEFLKVAEQVGIDRGDIPDLSQAPSSLLDALEQHLASLEGKKIKDSTAASRATTLSNAVSSLASTGLSLTKVDEREKQAALEEEQARLKALKEQRLKELAKKPHTSLTTAASPVSTSAGGIMTAPAIDIFSTPSSSNSTSKLPNDLLDLQQPTFHPSVHPMSTASQVASTWGDPFSATVDAVDDAIPSLNPFLTKSSGDVHLSISSDVSTFTTRTPTHEMFVGFTPSPVAQPHPSAGLNVDFESVFGNKSTNVIVDSGGFDELGGLLKPTVASQNQNLPVAKLPPSKLVSDDLDSSLANLVGNLGIGNGTTKNDVNWSQPGEKKLTGGSNWQPKVAPTTAWNAATMAPPVMAYPATTPTGMIGYGIPPQMGSVPVMTQPTLIYSQPVMRPPNPFGPVSGAQIQFM
For the molecule B1, the binding entry was “binds”.

The values are drawn from article PMC10880305.
